# Some of the results follow. These are further read-outs of the screen, such as a control signal, another cell line or another target. No call is given for them. Most of these compounds were active or inconclusive in the main read-out, so they are no random draw. Potencies come from curve fits of mixed quality, noted in brackets.
# Assay: IkB Signaling
# Conditions: ABC-DLBCL IkBa-CBG/CBR dual luciferase ratio (green luciferase fused to IkBa over red control in OCI-Ly3 lymphoma cells), 4 h; measured here: control luc red channel unless noted
# Procedure, shortened: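 Luminescence ratio of IκBα-fused green versus native red beetle luciferase in OCI-Ly3 cells, 4 h post-doxycycline with compound; red signal alone, scaled from basal (0%) to zero light (-100%), flagged nonspecific or cytotoxic effects.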
row,SMILES,AC50
1,COc1ccc(NCC(=O)Nc2ccc(Cl)cc2C)c(OC)c1,"15.8 µM [falling, partial curve]"
2,NC(=O)C1(N2CCCCC2)CCN(CC(=O)Nc2ccc(Oc3ccccc3)cc2)CC1,"15.8 µM [falling, partial curve]"
3,CCCN(Cc1cc2cc(C)ccc2[nH]c1=O)C(=O)c1cccc(OC)c1,"15.8 µM [falling, partial curve]"
4,COC(=O)c1cc2sc(Cl)cc2n1CC(=O)Nc1cc(C)cc(C)c1,"1 µM [falling, full curve]"
5,COC(=O)c1c(N)n(-c2ccc(OC)c(OC)c2)c2nc3ccccc3nc12,"20 µM [falling, single point]"
6,CS(=O)(=O)N(CCc1ccccc1)CC(=O)Nc1ccc2c(c1)OCO2,"39.8 µM [falling, single point]"
7,O=C(CSc1nc2ccccc2o1)NCc1ccc2c(c1)OCO2,"25.1 µM [falling, single point]"
8,CCOc1cccc2sc(N(Cc3cccnc3)C(=O)c3ccc(C#N)cc3)nc12,"20 µM [falling, partial curve]"
9,CCCOc1cccc(C(=O)Nc2cc(NC(=O)c3ccco3)ccc2OC)c1,"20 µM [falling, partial curve]"
10,Cc1c(CC(=O)NCc2ccc(F)cc2)c(=O)oc2cc(O)c(Cl)cc12,"25.1 µM [falling, single point]"
11,O=C(NCc1ccccc1Cl)c1ccc2oc(=O)n(Cc3ccccc3)c2c1,"20 µM [falling, partial curve]"
12,Cc1cc(C)n(-c2nc3ccccc3nc2N2CCN(c3cccc(C(F)(F)F)c3)CC2)n1,"31.6 µM [falling, partial curve]"
13,Cc1cccc(-n2nc(C)c(C(=O)Nc3cc(C)ccc3C)c2-n2cccc2)c1,"12.6 µM [falling, partial curve]"
14,CC(C)(C)OC(=O)N1CCC[C@H]1c1nnc(SCc2ccc(Cl)cc2Cl)o1,"15.8 µM [falling, partial curve]"
15,COc1ccccc1N1CCN(C(=O)c2ccc(S(=O)(=O)N3CCCCCC3)cc2)CC1,"10 µM [falling, partial curve]"
16,COc1ccccc1C(=O)Oc1ccc(C(c2c(C)[nH][nH]c2=O)c2c(C)[nH][nH]c2=O)cc1,"15.8 µM [falling, partial curve]"
17,Cc1csc2nc(COC(=O)c3ccccc3NC(=O)c3ccc(C(C)(C)C)cc3)cc(=O)n12,"0.1 µM [rising, full curve, poor fit]"
18,COc1ccc(CC(=O)Nc2ccc(-c3nc4ccccc4s3)c(C)c2)cc1OC,"0.316 µM [rising, full curve]"
19,O=C(CCCn1c(=O)c2cccn2c2ccccc21)NCCc1ccc(Cl)cc1,"20 µM [falling, single point]"
20,Cc1cnc(NC(=O)CSc2nnc(-c3ccc(Cl)cc3Cl)n2N)s1,"15.8 µM [falling, partial curve]"
21,CSc1nn(Cc2ccc(C)cc2)c(N)c1S(=O)(=O)c1ccccc1,"31.6 µM [falling, partial curve]"

row,SMILES,AC50
1,COc1ccc(OC)c(NC(=O)Cn2c(=O)cc(-c3ccccc3)c3c(C)nn(C)c32)c1,"20 µM [falling, partial curve]"
2,O=C(CCCCCn1c(=O)[nH]c2ccccc2c1=O)N1CCN(Cc2ccc3c(c2)OCO3)CC1,"25.1 µM [falling, partial curve]"
3,Cc1cccc(N2CCN(C(=O)CS(=O)(=O)Cc3nc(-c4ccccc4C)oc3C)CC2C)c1 (stereo unspecified),"25.1 µM [falling, partial curve]"
4,CCOc1ccc(N(Cc2ccccc2)C(=O)c2nc(S(C)(=O)=O)ncc2Cl)cc1,"3.16 µM [falling, full curve]"
5,CC(=O)c1c(C)oc2c1cc(NS(=O)(=O)c1ccc(Cl)c(C)c1)c1ccccc12,"12.6 µM [falling, partial curve]"
6,O=S(=O)(c1cccs1)N1CCN(Cc2nc3ccccc3s2)CC1,"15.8 µM [falling, partial curve]"
7,Cc1c(Cl)cccc1NC(=O)c1cc(-c2ccc(O)cc2)on1,"5.01 µM [falling, partial curve]"
8,O=C(Nc1ccc(Cl)cc1)C(NS(=O)(=O)c1cccs1)c1ccccc1 (stereo unspecified),"31.6 µM [falling, single point]"
9,Cc1nc(-c2ccc(C)c(N3CCN(C(=O)Nc4cccc(Cl)c4C)CC3)c2)no1,"25.1 µM [falling, partial curve]"
10,Cc1ccc(-n2c(Cc3ccccc3)nnc2SCc2nc(-c3cccs3)no2)cc1C,"25.1 µM [falling, partial curve]"
11,COc1ccc(CNC(=O)c2ccc3nc(-c4ccc(F)cc4)c(-c4ccc(F)cc4)nc3c2)cc1,"15.8 µM [falling, partial curve, poor fit]"
12,Cc1ccc(NC(=O)c2ccccc2Br)c(C(=O)c2ccccc2)c1,"39.8 µM [falling, single point]"
13,CC1CCN(c2nc3ccc(C(=O)NCc4ccccc4)cc3s2)CC1,"3.98 µM [falling, partial curve]"
14,COc1ccc(-c2cc(=O)c3c(O)cc(O)cc3o2)cc1,"6.31 µM [falling, partial curve]"
15,COc1ccc(CC(=O)Nc2nc3c(s2)CC(C)CC3)cc1 (stereo unspecified),"25.1 µM [falling, partial curve]"
16,CCN(C(=O)COc1cc(=O)n(CC)c2ccccc12)c1cc(Cl)ccc1OC,"12.6 µM [falling, partial curve]"
17,C[C@@H](C(=O)O)c1ccc(N2Cc3ccccc3C2=O)cc1,"12.6 µM [falling, partial curve]"
18,COc1ccc2c(c1)c1c(c(=O)n(CCc3ccccc3)c(=O)n1Cc1cccc(Cl)c1)n2C,"12.6 µM [falling, partial curve]"
19,Cc1ccccc1OCCCC(=O)Nc1nccs1,"25.1 µM [falling, partial curve]"
20,CCOc1ccccc1Nc1ncnc2c1cnn2-c1ccc(C)cc1,"25.1 µM [falling, partial curve]"

# A different layout for some results above.
row	SMILES	AC50
5	COC(=O)c1c(N)n(-c2ccc(OC)c(OC)c2)c2nc3ccccc3nc12	20 µM [falling, single point]
6	CS(=O)(=O)N(CCc1ccccc1)CC(=O)Nc1ccc2c(c1)OCO2	39.8 µM [falling, single point]
19	O=C(CCCn1c(=O)c2cccn2c2ccccc21)NCCc1ccc(Cl)cc1	20 µM [falling, single point]
